Results deposited as PubChem BioAssay AID602196 (INSERM, 2012).
The whole screen tested about 23,000 reagents; below is a part drawn at random. 455 of all reagents (2%) count as active. 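Active includes both protection and sensitisation; some change values fall well beyond the stated -50 to +50 range.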 Further read-outs or replicates are left out here. No sequences are given here. The record does not give: the amount of reagent.

- Assay: 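Modifiers of cisplatin sensitivity in A549 cells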
- Cell system: human A549 lung cancer cells
- Reagent: siRNA pair against human genes
- Timing: 48 h transfection before cisplatin; time from cisplatin to read-out not stated
- Treatment: cisplatin at a dose killing half of control-siRNA cells; exact dose and duration not given
- Detection: 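Shift in cisplatin death relative to control siRNA, from -50 (all cells die) to +50 (no cells die); siRNAs harmful on their own scored 0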
- Reading the numbers: two-siRNA summed score (-2 to +2): higher = both siRNAs protect from cisplatin killing; -2 means both sensitise
- Active means: 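Each siRNA scores 0 if harmful alone by LDH or WST-1, otherwise +1 if it reduces and -1 if it increases cisplatin killing; a gene is active when both siRNAs agree (sum +2 or -2)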
- Calls: active = both siRNAs shift cisplatin killing the same way; inactive = no consistent shift, or siRNA harmful alone

How did the screen score LOC400070 [SID131512763]?
two-siRNA summed score (-2 to +2): 0; call: inactive

Which result is listed for MRPL38 (mitochondrial ribosomal protein L38) [SID131505117]?
two-siRNA summed score (-2 to +2): 0; call: inactive

What did the screen give for PSD4 (pleckstrin and Sec7 domain containing 4) [SID131516862]?
two-siRNA summed score (-2 to +2): 0; call: inactive

Which result is listed for LOC257177 [SID131520237]?
two-siRNA summed score (-2 to +2): 1; call: inactive

With UNC13A (unc-13 homolog A) [SID131500332], what does the deposit list?
two-siRNA summed score (-2 to +2): -2; call: active

For ZBED8 (zinc finger BED-type containing 8) [SID131503308], what was measured?
two-siRNA summed score (-2 to +2): 0; call: inactive

Which result is listed for LENG8 (leukocyte receptor cluster member 8) [SID131506216]?
two-siRNA summed score (-2 to +2): 0; call: inactive

What did the screen give for LOC440377 [SID131510837]?
two-siRNA summed score (-2 to +2): 0; call: inactive

How did the screen score DENND10 (DENN domain containing 10) [SID131516802]?
two-siRNA summed score (-2 to +2): 0; call: inactive

How did the screen score RBM3 (RNA binding motif protein 3) [SID131511016]?
two-siRNA summed score (-2 to +2): 0; call: inactive

With RBM3 (RNA binding motif protein 3) [SID131512583], what was measured?
two-siRNA summed score (-2 to +2): 0; call: inactive

What did the screen give for FNTA (farnesyltransferase, CAAX box, subunit alpha) [SID131511492]?
two-siRNA summed score (-2 to +2): 0; call: inactive

For PLCE1 (phospholipase C epsilon 1) [SID131505024], what does the deposit list?
two-siRNA summed score (-2 to +2): 0; call: inactive

Which result is listed for FAP (fibroblast activation protein alpha) [SID131501980]?
two-siRNA summed score (-2 to +2): -1; call: inactive

For ZNHIT2 (zinc finger HIT-type containing 2) [SID131519904], how do the results read?
two-siRNA summed score (-2 to +2): 1; call: inactive

For LOC389252 [SID131514790], how do the results read?
two-siRNA summed score (-2 to +2): 0; call: inactive

What did the screen give for LOC400675 [SID131508358]?
two-siRNA summed score (-2 to +2): 0; call: inactive

How did the screen score ZNF282 (zinc finger protein 282) [SID131507513]?
two-siRNA summed score (-2 to +2): 0; call: inactive

With LOC442250 [SID131515451], what was measured?
two-siRNA summed score (-2 to +2): 0; call: inactive

For SPAG11B (sperm associated antigen 11B) [SID131521047], what does the deposit list?
two-siRNA summed score (-2 to +2): 1; call: inactive

With GMCL2 (germ cell-less 2, spermatogenesis associated) [SID131508935], how do the results read?
two-siRNA summed score (-2 to +2): 0; call: inactive

How did the screen score PPIA (peptidylprolyl isomerase A) [SID131507609]?
two-siRNA summed score (-2 to +2): 0; call: inactive

How did the screen score TNFRSF1A (TNF receptor superfamily member 1A) [SID131522533]?
two-siRNA summed score (-2 to +2): 1; call: inactive

With DOK3 (docking protein 3) [SID131507102], how do the results read?
two-siRNA summed score (-2 to +2): 0; call: inactive

With LOC389147 [SID131520171], how do the results read?
two-siRNA summed score (-2 to +2): 1; call: inactive

Which result is listed for UEVLD (UEV and lactate/malate dehyrogenase domains) [SID131520848]?
two-siRNA summed score (-2 to +2): 1; call: inactive

For SLAMF7 (SLAM family member 7) [SID131516413], what was measured?
two-siRNA summed score (-2 to +2): 0; call: inactive

What is on record for GTF2I (general transcription factor IIi) [SID131522935]?
two-siRNA summed score (-2 to +2): 2; call: active

What is on record for MED14 (mediator complex subunit 14) [SID131503992]?
two-siRNA summed score (-2 to +2): 0; call: inactive

What did the screen give for INHA (inhibin subunit alpha) [SID131509608]?
two-siRNA summed score (-2 to +2): 0; call: inactive

For FIRRM (FIGNL1 interacting regulator of recombination and mitosis) [SID131510554], what does the deposit list?
two-siRNA summed score (-2 to +2): 0; call: inactive

What is on record for ADAMTSL4 (ADAMTS like 4) [SID131514355]?
two-siRNA summed score (-2 to +2): 0; call: inactive

What did the screen give for UBE2F (ubiquitin conjugating enzyme E2 F (putative)) [SID131519359]?
two-siRNA summed score (-2 to +2): 1; call: inactive

What did the screen give for NAT8B (N-acetyltransferase 8B (putative, gene/pseudogene)) [SID131515246]?
two-siRNA summed score (-2 to +2): 0; call: inactive

What did the screen give for ZNF792 (zinc finger protein 792) [SID131508036]?
two-siRNA summed score (-2 to +2): 0; call: inactive

For ANKRD40 (ankyrin repeat domain 40) [SID131518065], what does the deposit list?
two-siRNA summed score (-2 to +2): 0; call: inactive

What did the screen give for TIMM13 (translocase of inner mitochondrial membrane 13) [SID131509615]?
two-siRNA summed score (-2 to +2): 0; call: inactive

What is on record for GPATCH8 (G-patch domain containing 8) [SID131517250]?
two-siRNA summed score (-2 to +2): 0; call: inactive

With CLEC11A (C-type lectin domain containing 11A) [SID131514839], how do the results read?
two-siRNA summed score (-2 to +2): 0; call: inactive

For NDUFS2 (NADH:ubiquinone oxidoreductase core subunit S2) [SID131504376], how do the results read?
two-siRNA summed score (-2 to +2): 0; call: inactive

Reformatted: 6 of the entries above
Target gene | PubChem SID | two-siRNA summed score (-2 to +2) | call
ZNF282 (zinc finger protein 282) | SID131507513 | 0 | inactive
LOC442250 | SID131515451 | 0 | inactive
SPAG11B (sperm associated antigen 11B) | SID131521047 | 1 | inactive
GMCL2 (germ cell-less 2, spermatogenesis associated) | SID131508935 | 0 | inactive
PPIA (peptidylprolyl isomerase A) | SID131507609 | 0 | inactive
TNFRSF1A (TNF receptor superfamily member 1A) | SID131522533 | 1 | inactive
